This is an account of results in PubChem BioAssay AID1508600 (Functional Genomics Laboratory (NCATS/FGL), 2020).

The whole screen tested about 53,000 sequences, of which about 3,700 (7%) were called active.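 Rule for the calls: active = gene knockdowns whose robust z-score for IL-1 alpha signal is at least 2 or at most -2, so actives lie on both sides; inactive = the rest.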 The list shows a part of the results.

This experiment in a line: Components of the Cytosolic LPS Sensing Pathway: Gene Identification via Genome-wide siRNA Screen.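 Note: robust z of the log signal after scaling to non-targeting control siRNA wells of the plate.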 The note with it: RAW264.7 macrophages, IL-1a HTRF, actives lie on both sides, screened at 100 nM (by protocol), cells primed 5 h with Pam3CSK4 first. The essentials: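 Using IL-1a HTRF as read-out, the screen measured release from RAW264.7 cells after 48h siRNA knockdown (100 nM), 5 h Pam3CSK4 priming and 24 h cytosolic LipidA. Values were expressed relative to negative-control wells as robust z-scores.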
Background: TR-FRET usually uses a lanthanide donor and a delayed reading to cut background.
GGGAACCAAACUGUCAUCUTT against Olfr20: the z-score is inactive: -0.133.

Regarding GGAGUACUGGGCAUAUAAATT against Slc29a3, the z-score was inactive: -0.324.

GGGUUAUGAAGACAAACCATT against Ccdc47: the z-score was inactive: -0.307.

As to GCUCCUAAUCUAGGAUCUGTT against Prss22, the z-score is inactive: 1.69.

As for CCUUACUGAUACUCAAUUUTT against Sec14l4, the z-score was inactive: 1.21.

For GAGCCUCUGUCUUUUUCUATT against Olfr342, the z-score is inactive: -0.32.

On to GGCAGGUUUGGUAACCAGATT against Fut1, for which the z-score was inactive: 0.559.

Take GCAAGGUGCACCUAAAGCATT against Egr4: the z-score is inactive: -0.664.

On to GCUGUCUAGUACAUCUGACTT against Cry2, for which the z-score is inactive: -0.32.

As for CGACACUCAAUGUGAACUUTT against Grtp1, the z-score was inactive: -0.881.

GGCUGAUUUUGAAAAGCAATT against Rdh5: the z-score is inactive: 1.47.

On to GGAAAUAUGCGAAAGCUGATT against Seh1l, for which the z-score is inactive: -1.88.

Consider GGACUUUGAAAAGAGAAUUTT against Polb, for which the z-score is inactive: -0.213.

In the case of GAAAGUUUACGGGAAAUCUTT against Klf13, the z-score was active: 2.04.

With GCAUCACGGAUUCGAAUUGTT against Dgkz, the z-score was inactive: -1.25.

With CCAUCAAAUCGAACUGUUUTT against Tmx1, the z-score was inactive: 0.394.

Consider GGUAUGCUAUGAUCUUAACTT against Olfr561, for which the z-score was inactive: -0.0643.

With CGGGAUUAAUCUUUCUGGGTT against Clec1b, the z-score was inactive: -1.94.

Take GGACACUCAGAAGAAAACCTT against Syne2: the z-score is inactive: 0.0756.

As for GGGCGAGUUGAAGAAUUUCTT against Dbf4, the z-score was inactive: 1.12.

As to GGAGUAGCUGUACUCAACATT against Olfr790, the z-score was inactive: -0.246.

Regarding GCUCCAACACGAGAAGAAATT against Zfp598, the z-score was inactive: 0.397.

For the sequence CCGGUUUCGAAAGAGAACUTT against Irs1, the z-score is inactive: 0.105.

In the case of GGAAGGAGGACAGAGGAAUTT against Tmem19, the z-score is active: 2.34.

In the case of GGUGAGCACUAAAUGCAGATT against Cldn16, the z-score is inactive: 0.892.

GUGACAAUGAAAAAUGUGUTT against Clec4b1: the z-score is active: -2.42.

As to GGUGUACCCAGUACUGCCATT against Cdk2, the z-score is inactive: 0.57.

Take GGCAUUUUUCGGAUUGACATT against Mmp27: the z-score was inactive: -0.807.

As for GCAUCUUCCACAUUCGCUCTT against Olfr945, the z-score was inactive: 0.452.

Regarding GGACAGGAAGGUCAUCCCUTT against Sntb2, the z-score was inactive: -0.568.

For CCCUCUGUUCGAGAAGAGGTT against Rpl7a, the z-score is inactive: 1.57.

For the sequence GGUGAUCCUAAGAAAGUCCTT against Ireb2, the z-score is inactive: 1.07.

Regarding GGCUAAAAAGAGUAGACUATT against Irs1, the z-score is inactive: 1.14.

Consider GGUUUCAAAGAGUCUCAUUTT against Ccdc136, for which the z-score is inactive: -0.00288.

As to GGUGGUUGGUGGGUAUUUATT against Slc30a3, the z-score was inactive: 1.64.

For CCUUAGAUGAAAUUAGACATT against Bhlhb9, the z-score was inactive: 0.853.

Take CACCUAAACCCAUUCCAGUTT against Dpm3: the z-score is inactive: 1.45.

With CCUGCCAGAGCCGGAAUUUTT against Nrp, the z-score was inactive: 1.49.

For GGCUGACCUCAUUAAUAACTT against Hsp90ab1, the z-score is inactive: 0.0919.

As to GGAUUUGUGACUUUCUGCATT against Gstt4, the z-score is inactive: 0.209.

With CCAUCUGGACUUCAGUUUUTT against Rap1gap2, the z-score was inactive: 0.901.

Consider GCUAUGUGGCCAUAGAUUATT against Hemk1, for which the z-score is inactive: -0.493.

Turning to GGAACACAUUACCUCAAUUTT against Lipt2, the z-score is inactive: -0.705.

Turning to GGAAGACCCUUCUUAUGACTT against Fli1, the z-score was inactive: 0.318.

Regarding GCCUUAUCCUGAGAAUGGCTT against Lrrc47, the z-score is inactive: -0.61.

Consider GGAGACAACUGUCAAGCUGTT against Igdcc4, for which the z-score is inactive: -0.0921.

Regarding CGAACAGAAACAGUUAUUATT against Gbp2, the z-score was inactive: 1.01.

Take GGCAUCCUUGACAUAACCUTT against Olfr586: the z-score was inactive: -1.89.

Regarding GGUGUUUAAAUACAACCGATT against Ptgis, the z-score is inactive: -0.506.

For the sequence GGAGUGCACUGGAAAACACTT against Rasef, the z-score is inactive: -0.436.

In the case of GGAAUUUGAAGCUGUCACUTT against Spata2, the z-score was inactive: -0.433.

Take GCUCAUUCGGACCAAAACUTT against Nod1: the z-score is inactive: -1.77.

Take CCCAGGGAAACCUUAACUCTT against Pstpip1: the z-score is inactive: -0.112.

For GGAUGCUCUAGUUCCAUUATT against Aym1, the z-score is inactive: 0.51.

As to GGGAAUUGCUCACCUCCAUTT against Klre1, the z-score was inactive: -0.46.

For GGACAUUACCAGCUUGCUGTT against Nkd1, the z-score is inactive: 0.665.

GGCUGAUGAUAAGCUGAUUTT against Letm1: the z-score was inactive: 0.583.

Consider GGAAUUGUUAAUUGUGGGATT against Stau2, for which the z-score is active: -2.25.

On to GCUGUGCAUAUGGUAUAUUTT against Taok1, for which the z-score was inactive: 1.11.

Consider GGUAGCAAUCAUUUUCCUUTT against Ccdc122, for which the z-score is inactive: -0.569.

On to GCCAAUAUUUGUUUUUGAGTT against Ranbp3l, for which the z-score was inactive: 0.0685.

Regarding GGAAGAUGAAGAGUCAGAGTT against Setd1b, the z-score is active: -2.52.

As to “GGUCUACGACCGAUGUUCUTT against 9530003J23Rik”, the z-score was inactive: 0.729.

On to GGAACAGAAAGCUAUGGAUTT against Surf6, for which the z-score was inactive: 1.82.

With CCCACUUUGACACGACACATT against Sertad1, the z-score was inactive: -1.46.

For GCAUCAUUUUAACACUUCUTT against Tubd1, the z-score was inactive: -0.0435.

In the case of GGUCUACUCUUCAUAUCGCTT against Rab3d, the z-score is inactive: -0.566.

Turning to CGUACUCCGAAUUCAUGCATT against Jmjd8, the z-score is inactive: -1.64.

Regarding CGAUGUACUGUCUCUUUUGTT against Ywhaz, the z-score is inactive: 1.73.

On to UGGCUGCCCACACCUUUAATT against Ankrd39, for which the z-score was inactive: -0.617.

On to GGUGAAGGCUGACCGAGAUTT against Rps14, for which the z-score was inactive: -1.2.

On to GGAUGGUGAAAAUCUUGAGTT against Mindy1, for which the z-score is inactive: 1.39.

Turning to GGAAAUUCUUUGUGAGUUUTT against Ncapd2, the z-score was inactive: 1.06.

With GGUUUUAUUGCCUAAAAAGTT against Ankfy1, the z-score is inactive: -0.357.

Take GGAUAAGGAGAUGAAUUCCTT against Aard: the z-score was inactive: 1.01.

In the case of GCCCACAGGAUAAUUGUUATT against Brox, the z-score is inactive: 1.26.

CCCUGACCUUCAGAUUGUGTT against Olfr788: the z-score is inactive: 0.14.

Regarding GCAGUGCAGAUCGUUAUUGTT against Stx7, the z-score is inactive: 0.223.

With GGGAUGAAUCCUAUUAGUATT against Stau1, the z-score is inactive: -1.19.

For the sequence GGCAGUUCAUGUUUAAAGATT against Fgfr1op2, the z-score is inactive: -0.381.

On to CGGUCUGUGUAUGUUAAGATT against Upp2, for which the z-score is inactive: -0.216.

Regarding GGACUUUGUACAUUGUUUUTT against Actb, the z-score was active: 2.2.

In the case of “GGCGUACAACAACCUACAGTT against St6galnac5”, the z-score was inactive: 1.06.

For the sequence GGUCGACCUAUUGGUAUUCTT against Oas1h, the z-score was inactive: -1.63.

CGAAUGGCUGACCAUAAAATT against Sdr9c7: the z-score was inactive: -0.803.

As to GGUAUGAUGAUUGUUAGAUTT against Phf20, the z-score was inactive: 0.141.

Consider “GCGUGCACACCUUUGAACUTT against 4930563M21Rik”, for which the z-score is inactive: -0.0108.

With CCAGGAGGAUACAAUCCCUTT against Rgs3, the z-score was active: -3.38.

As to GGGAAUUUACUGCAGGAUATT against Itln1, the z-score is active: 2.72.

Turning to GGGACAGUUAGUCAGUAAGTT against Pus7l, the z-score is inactive: 0.196.

For the sequence GGACCAGUGUCUUAUUAAUTT against Osbpl8, the z-score is inactive: 0.619.

On to GGGAUGAAGUGUUCCAUCCTT against Ccdc187, for which the z-score was active: 2.88.

Regarding GGACUGAAGCAGUAUCAAGTT against Eaf2, the z-score is inactive: -0.463.

For the sequence GGUCAUAGAUGAGCUUAGUTT against Appl1, the z-score is inactive: -0.763.

Turning to GGAGAGAAGAAAGAAAAAGTT against Gps2, the z-score was inactive: -1.27.

As for GGAAGAAGGCAGAAGAGUUTT against Ube2l6, the z-score is inactive: -1.94.

In the case of GGCCCAUAUUGGCUACAUUTT against Skint4, the z-score is inactive: -1.18.

GGGAAAGUGCUCUAGCAAGTT against Rbm34: the z-score was inactive: 0.71.

As for GGUUAUGAGAAUCUAAGAUTT against Ypel5, the z-score was inactive: -1.21.

On to CCAUAAGCGAAAUGCCUUCTT against Areg, for which the z-score is inactive: 0.201.

CGAAGUUACGAGCAUCCACTT against Crhr2: the z-score was active: 3.81.

Consider GACACCACCAUCAAUCAACTT against Olfr338, for which the z-score is inactive: -0.63.

For GCAUAGUUGGAACCGUAUUTT against Tdpoz3, the z-score is active: 2.25.

Consider GGAACUAGAGACACUGAUUTT against Kcnk10, for which the z-score was inactive: 0.721.

For the sequence GGUGAAAAUGACCUGGUGATT against Cd300ld, the z-score is inactive: -0.116.

Regarding GGAGGUAGGAAUAUGACUUTT against Klrb1c, the z-score was inactive: 0.0825.

In the case of GGCCCAGUCAUGUCAAAUCTT against Olfr1346, the z-score is inactive: -1.11.
